Results are given in words; binding and its absence hold for the method and conditions named. In cells and extracts the contact can be indirect. These calls come from enrichment with a bait or labelling near it, and not all partners need be listed.

Amino acid sequences for entries named in this document (tags omitted). A change or cut given only in a name is not applied to a line headed by its entry.
UniProt P10144: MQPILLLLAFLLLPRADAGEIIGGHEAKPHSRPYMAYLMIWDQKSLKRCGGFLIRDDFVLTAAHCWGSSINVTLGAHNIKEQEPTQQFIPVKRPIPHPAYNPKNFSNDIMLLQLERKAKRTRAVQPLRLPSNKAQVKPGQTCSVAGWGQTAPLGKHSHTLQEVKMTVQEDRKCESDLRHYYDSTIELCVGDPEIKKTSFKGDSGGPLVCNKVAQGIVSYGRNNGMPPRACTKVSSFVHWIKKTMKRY

The values that follow come from paper PMC12711971.

The target in this assay is T1, GSDMC (UniProt Q9BYG8).
T1 sequence: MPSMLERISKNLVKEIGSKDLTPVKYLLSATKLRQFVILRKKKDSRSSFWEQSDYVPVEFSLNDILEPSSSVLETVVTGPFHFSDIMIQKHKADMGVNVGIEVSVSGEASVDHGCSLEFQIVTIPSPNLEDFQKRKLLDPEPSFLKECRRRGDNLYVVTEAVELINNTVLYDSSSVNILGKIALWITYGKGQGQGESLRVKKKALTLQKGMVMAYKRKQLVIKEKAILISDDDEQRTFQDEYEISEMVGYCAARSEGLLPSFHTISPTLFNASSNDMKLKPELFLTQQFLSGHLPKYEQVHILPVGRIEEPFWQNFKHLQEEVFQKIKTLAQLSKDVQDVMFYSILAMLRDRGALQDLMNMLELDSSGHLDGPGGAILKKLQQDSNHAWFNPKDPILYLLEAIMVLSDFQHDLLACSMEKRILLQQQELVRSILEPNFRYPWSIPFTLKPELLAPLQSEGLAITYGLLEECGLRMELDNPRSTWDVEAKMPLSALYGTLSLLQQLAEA
Nature of the assay: proximity labelling; TurboID; A375 cells overexpressing GZMB and GSDMC, DdBIC (20 uM, 7 h), 100 uM biotin 10 min at 37 C, streptavidin magnetic beads, western blot. (In general: A western blot detects proteins with antibodies after separation by electrophoresis.)

In the case of “granzyme B (from UniProt P10144) (enzyme)”, the binding entry is “binds”.
